# Assay results: PubChem BioAssay AID652054 (National Center for Advancing Translational Sciences (NCATS), 2013)
# The chains behind the UniProt entries cited, without tags or fusion partners.
# UniProt P35462, whole entry, looked up: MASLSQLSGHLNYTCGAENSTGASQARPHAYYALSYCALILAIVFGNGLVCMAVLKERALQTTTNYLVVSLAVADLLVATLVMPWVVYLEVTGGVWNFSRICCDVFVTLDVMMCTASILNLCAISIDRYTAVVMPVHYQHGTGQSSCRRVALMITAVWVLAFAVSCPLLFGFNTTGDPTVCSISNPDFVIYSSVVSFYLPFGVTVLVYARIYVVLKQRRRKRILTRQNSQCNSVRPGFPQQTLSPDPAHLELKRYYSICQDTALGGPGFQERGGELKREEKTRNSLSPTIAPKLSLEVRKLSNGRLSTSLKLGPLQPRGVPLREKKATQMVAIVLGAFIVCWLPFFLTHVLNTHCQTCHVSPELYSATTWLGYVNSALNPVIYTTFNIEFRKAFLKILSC
# Screen size: about 360,000 compounds; about 9,100 (2.5%) were called active. The shares of active, inactive and inconclusive entries below differ from those in the screen. Rule as the data show it: active = max response below about -50%; inconclusive = no clear call, values can overlap the other calls; inactive = above that.
# Biological target: D(3) dopamine receptor (Homo sapiens) (UniProt P35462)
# Assay: qHTS of D3 Dopamine Receptor Antagonist: qHTS
# Details: D3R cells, DiscoveRx beta-arrestin luminescence, antagonist mode; active compounds read low
# Method in brief: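 Cells plated overnight at 1500 cells/well, then exposed to library compounds with dopamine controls for 90 minutes at 37 degrees C. DiscoveRx reagent added for 30–60 minutes at room temperature; luminescence read, quantitative HTS format.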
# % is scaled to controls: 0 for no effect and ±100 for the full control effect.
row,SMILES,"max response, negative = inhibition"
1,CCC(C)(C)C1CCc2[nH]nc(C(=O)NCc3ccc(OC)cc3)c2C1 (centres undefined),inactive: -10.3%
2,COc1ccc(NC(=O)c2cc3n(n2)C(C(F)(F)F)CC(c2ccc4c(c2)OCO4)N3)cc1OC (centres undefined),inconclusive: -38.6%
3,CNS(=O)(=O)c1cccc(C(=O)Nc2cccc(Cl)c2)c1,inconclusive: -49%
4,Cc1ccc(/C=N\n2c(-c3ccccc3)n[nH]c2=S)s1,active: -72.1%
5,Clc1ccc(-c2ccnc3nc(N4CCOCC4)nn23)c(Cl)c1,inactive: 13%
6,CCN1CCCC1CNC(=O)c1ccc(N2CCOCC2)c(NS(=O)(=O)c2ccc(OC)cc2)c1 (centres undefined),inconclusive: -31.2%
7,Cc1ccc(-c2noc(CCC(=O)NC3CCCC3)n2)cc1,inactive: 18.2%
8,CCCCNC(=S)NCCN1CCCCC1,active: -72.1%
9,Cc1occc1-c1n[nH]c(=S)n1CC(C)C,inconclusive: -35.3%
10,CC(C)C[C@@H](COCc1cccc(C(F)(F)F)c1)N1CCN(C(=O)c2ccc(C(F)(F)F)cc2)CCC1=O,inactive: 56.4%
11,NS(=O)(=O)c1ccc(N=Nc2c[nH]c(=O)c(O)c2)cc1,active: -66.2%
12,CC(c1ccccc1)C1C(C#N)=C(N)OC2=C1C(=O)CC(C)(C)C2 (centres undefined),inactive: -7.41%
13,COc1ccccc1/C=C/C=N/N1CCN(Cc2ccc(Cl)cc2)CC1,inconclusive: -30.5%
14,COC(=O)c1ccc(/C=N/NS(=O)(=O)c2cc(C)ccc2C)cc1,active: -81.5%
15,CC[C@@H]1C(=O)[C@H](Cc2ccccc2)[C@H]2CCCC(=O)N3CC[C@@H]1[C@@H]23,inconclusive: -37%
16,O=C(Oc1ccc(Br)cc1C(=O)/C=C/c1ccccc1F)c1ccco1,inconclusive: -39.1%
17,CC(=O)NC1C(Oc2cccc(C)c2)OC2COC(c3ccco3)OC2C1O (centres undefined),inactive: 9.86%
18,Cc1ccc(NC(=S)N=Nc2c(O)n(C)c3ccc(S(=O)(=O)N4CCOCC4)cc23)cc1,inactive: -6.47%
19,COc1cc(O)c(C(CC(=O)N2CCCC2)c2cc(OC)c(OC)c(OC)c2)c(OC)c1 (centres undefined),inconclusive: -30.6%
20,COc1ccccc1CNC(=O)C1CC(c2ccccc2[N+](=O)[O-])=NO1 (centres undefined),inconclusive: -32.3%
21,Cc1ccccc1NS(=O)(=O)c1cc(C(=O)NCCSC2CCCCC2)ccc1C,inconclusive: -34.3%
22,COc1ccc(CSc2nnc(C)s2)cc1F,inconclusive: -49.7%
23,CCc1ccc(NC(=S)NC2CC3CCCC(C2)N3Cc2cccs2)cc1 (centres undefined),active: -70.2%
24,c1ccc(CSc2nnnn2-c2cccc3ccccc23)nc1,inconclusive: -33.6%

# A different layout for some results above:
row	SMILES	max response, negative = inhibition
1	CCC(C)(C)C1CCc2[nH]nc(C(=O)NCc3ccc(OC)cc3)c2C1 (centres undefined)	inactive: -10.3%
2	COc1ccc(NC(=O)c2cc3n(n2)C(C(F)(F)F)CC(c2ccc4c(c2)OCO4)N3)cc1OC (centres undefined)	inconclusive: -38.6%
3	CNS(=O)(=O)c1cccc(C(=O)Nc2cccc(Cl)c2)c1	inconclusive: -49%
4	Cc1ccc(/C=N\n2c(-c3ccccc3)n[nH]c2=S)s1	active: -72.1%
5	Clc1ccc(-c2ccnc3nc(N4CCOCC4)nn23)c(Cl)c1	inactive: 13%
